Record: PubChem BioAssay AID1259276 (Sanger Institute, 2017)
This is an unselected part of 794 reagents. 24 of all reagents (3%) count as active. 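Calls come only from the siRNA-alone arm; drug synergy scores do not affect them.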 Unmarked entries are inactive. Not all columns of the deposit are shown. Not stated in the record: the amount of reagent, the time to read-out.

- Test: 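Kinase knock-downs that reduce colorectal cancer cell viability alone or with anchor drugs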 (primary screen)
- System: human C2BBe1 colorectal cancer cells
- Reagent: siRNA pool against human genes
- Challenge: DMSO vehicle, or one anchor drug: BYL719 at 1 µM, cetuximab at 5 µg/ml, or trametinib at 10 nM; exposure length not stated
- Detection: 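Viability after knock-down relative to non-targeting siRNA controls, averaged across replicates, given as ratio and control-derived robust z-score, with per-drug synergy scores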
- Reading the numbers: viability robust z-score, siRNA alone: higher = more viable cells after knock-down
- Call rule: 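a siRNA pool tested without drug is essential if its viability robust z-score falls under -3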
- Meaning of the calls: active = essential (siRNA alone); inactive = no change (siRNA alone)

Which result is listed for PMVK [SID135621255]?
viability robust z-score, siRNA alone: -3.79 (active)

What did the screen give for BRD3 [SID135620912]?
viability robust z-score, siRNA alone: 0.472

With MAPK13 [SID56478704], how do the results read?
viability robust z-score, siRNA alone: 0.472

What is on record for CHD9 [SID152154196]?
viability robust z-score, siRNA alone: 0.472

What did the screen give for HK2 [SID56479103]?
viability robust z-score, siRNA alone: -1.05

Which result is listed for MYO3A [SID152148134]?
viability robust z-score, siRNA alone: 0.472

Which result is listed for KDR [SID56478526]?
viability robust z-score, siRNA alone: 0.472

Which result is listed for CRKL [SID152150429]?
viability robust z-score, siRNA alone: 0.472

With SOX9 [SID134325081], what does the deposit list?
viability robust z-score, siRNA alone: 0.472

For BCR [SID152154242], how do the results read?
viability robust z-score, siRNA alone: -0.753

How did the screen score CAMK2D [SID56478759]?
viability robust z-score, siRNA alone: 0.472

With PAPSS1 [SID56479195], how do the results read?
viability robust z-score, siRNA alone: 0.472

Which result is listed for PRKCQ [SID56478674]?
viability robust z-score, siRNA alone: 0.472

With MAP3K4 [SID152151893], how do the results read?
viability robust z-score, siRNA alone: 0.472

Which result is listed for NLK [SID56478865]?
viability robust z-score, siRNA alone: 0.472

For MAP3K20 [SID152152597], how do the results read?
viability robust z-score, siRNA alone: 0.472

Records above whose gene name begins with C or c:
CHD9 [SID152154196]: viability robust z-score, siRNA alone = 0.472
CRKL [SID152150429]: viability robust z-score, siRNA alone = 0.472
CAMK2D [SID56478759]: viability robust z-score, siRNA alone = 0.472

Next reagents:
Which result is listed for MAP3K2 [SID135620706]?
viability robust z-score, siRNA alone: 0.342

With ATP23 [SID152151481], what does the deposit list?
viability robust z-score, siRNA alone: 0.472

Which result is listed for DCK [SID56479088]?
viability robust z-score, siRNA alone: 0.472

With AK4 [SID152149659], what does the deposit list?
viability robust z-score, siRNA alone: -0.679

For NEK7 [SID56478729], how do the results read?
viability robust z-score, siRNA alone: -0.163

What is on record for NUAK2 [SID56479046]?
viability robust z-score, siRNA alone: 0.472

Which result is listed for FYN [SID135620621]?
viability robust z-score, siRNA alone: 0.472

How did the screen score CDKN2D [SID135620643]?
viability robust z-score, siRNA alone: -2.87

For MAPK12 [SID152156302], what does the deposit list?
viability robust z-score, siRNA alone: 0.472

What did the screen give for CDK4 [SID56478598]?
viability robust z-score, siRNA alone: 0.472

For FN1 [SID134314553], what was measured?
viability robust z-score, siRNA alone: 0.472

What is on record for N4BP2 [SID152151934]?
viability robust z-score, siRNA alone: 0.472
